# Laboratory results from PubChem BioAssay AID504834 (National Center for Advancing Translational Sciences (NCATS), 2011).
# Screen size: about 320,000 compounds; about 22,000 (6.9%) were called active. Inconclusive results, whose numbers are uncertain, are shown with a selection of clear calls. The call rests on the fitted dose curve; in most records, active means well fitted inhibition curve with a large enough effect; inconclusive means small, poorly fitted or top-dose-only effect, or another doubt; inactive means no such curve, though single readings can be large or run the other way. Where the call is inconclusive, the potency comes from a doubtful curve fit.
# Assay: Primary qHTS for delayed death inhibitors of the malarial parasite plastid, 96 hour incubation
# Details: P. falciparum luciferase reporter growth; series mostly up to 28.7 µM; activity change, negative = inhibition: at the top concentration
# How it was run: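 Parasite growth measured via integrated firefly luciferase reporter in P. falciparum. Infected erythrocytes at 2% hematocrit, 0.05% parasitemia final were treated 96 hours at 37 C under 5% CO2, and luminescence was read.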
# On the % scale 0 is the no-effect control and ±100 the full control effect; potency means the concentration at half of the fitted maximal effect.
SMILES,Potency,"activity change, negative = inhibition"
Cn1cc([N+](=O)[O-])c(C(=O)Nc2cc(Oc3ccccc3)cc([N+](=O)[O-])c2)n1,"inconclusive: 6.57 µM [inhibitor, partial curve, poor fit]",
Cc1ccc(NC(=O)Nc2ccnc(-c3cccnc3)n2)cc1,"inconclusive: 1.85 µM [inhibitor, single point]",
O=S(=O)(NC1CCCCC1N1CCN(c2cccc(Cl)c2)CC1)c1ccccc1 (stereo not given),,inactive: -5.8%
COc1ccccc1CNC(=O)C1Cc2cc(S(=O)(=O)N3CCCC3)ccc2N1C(C)=O (stereo not given),,inactive: 17%
O=C(CN1CCN(CC(=O)Nc2ccccc2F)CC1)Nc1ccc2c(c1)OCCO2,"inconclusive: 9.28 µM [inhibitor, single point]",
COc1ccc(C(=O)NCCNC(=O)c2ccccn2)cc1,,inactive: 65.9%
CN(CC(=O)Nc1nc2ccccc2s1)S(=O)(=O)c1ccccc1,"inconclusive: 1.65 µM [inhibitor, full curve]",
N=C1SC(CC(=O)Nc2ccc([N+](=O)[O-])cc2)C(=O)N1c1ccccc1 (stereo not given),"inconclusive: 20.8 µM [inhibitor, partial curve, poor fit]",
CCc1ccccc1N(CC(=O)NCCc1ccccc1)C(=O)CCC(=O)Nc1ccccn1,"inconclusive: 16.5 µM [inhibitor, single point]",
CC(C(=O)N1CCN(C=O)CC1)N1C(=O)c2ccccc2C1=O (stereo not given),"inconclusive: 7.38 µM [inhibitor, partial curve]",
O=C(CCc1ccccc1)NCCSc1ccccc1,,inactive: 82.3%
CN1C(=O)CSC1=Nc1ccc(Br)cc1,"inconclusive: 7.38 µM [inhibitor, partial curve]",
O=C(Nc1ccc(N2CCCC2)c(Cl)c1)c1cccc(-c2cc3ccccc3oc2=O)c1,,inactive: 13.4%
Cc1ccc(NC(=O)c2cc([N+](=O)[O-])ccc2N2CCOCC2)cc1C,"inconclusive: 18.5 µM [inhibitor, single point]",
CC(=O)N1CCc2c(sc(NC(=O)C3CCN(S(=O)(=O)c4cccs4)CC3)c2C(N)=O)C1,"inconclusive: 4.15 µM [inhibitor, partial curve, poor fit]",
C=CCSc1nc(N2CCOCC2)c2c(c1C#N)CC(C)(C)N(C)C2,"inconclusive: 1.17 µM [inhibitor, partial curve, poor fit]",
CS(=O)(=O)c1ccc(Cl)c(NC(=O)COC(=O)CNC(=O)c2ccc3ccccc3c2)c1,,inactive: 3.06%
Cc1nc([N+](=O)[O-])c(Br)n1Cc1ccc(Cl)c(Cl)c1,,inactive: -18.3%
COc1ccc(OCc2cc(C(=O)N3CCN(C4CCCC4)CC3)no2)c(Cl)c1,"inconclusive: 5.86 µM [inhibitor, partial curve]",
CCOc1ccc(NC(=S)N2CCN(S(=O)(=O)c3ccc(OC)cc3)CC2)cc1,"inconclusive: 18.5 µM [inhibitor, single point]",
N=C1C(c2ccccc2)=C(O)CN1c1cccc(S(=O)(=O)NCc2ccco2)c1,,inactive: 15.9%

SMILES,Potency,"activity change, negative = inhibition"
Cc1cc2oc(=O)cc(COC(=O)Cn3cnnn3)c2cc1C(C)C,"inconclusive: 20.8 µM [inhibitor, partial curve, poor fit]",
Cc1ccc(S(=O)(=O)N2CCN(c3ncnc4sccc34)CC2)cc1C,active: 11.7 µM,
N#Cc1ccc(C2=CC(=O)C[C@H](c3ccc(Cl)cc3)C2)cc1,"inconclusive: 5.22 µM [inhibitor, single point]",
CCO/C(C)=N/n1c2nc3ccccc3nc2c2c(=O)n(Cc3ccccc3Cl)c(C)nc21,"inconclusive: 0.0329 µM [inhibitor, full curve, poor fit]",
COc1ccc2cc(C(=O)Nc3ccc(F)cc3)sc(=O)c2c1OC,"inconclusive: 4.15 µM [inhibitor, single point]",
O=C(O)c1ccc(Cl)c(NCc2ccncc2)c1,"inconclusive: 18.5 µM [inhibitor, single point]",
CCOC(=O)c1cnc(-c2ccccc2)nc1Oc1ccc(Cl)cc1,,inactive: 15.7%
Cn1cc(/C=C(\C#N)C(=O)Nc2ncc(Cc3cccc(Cl)c3)s2)c2ccccc21,"inconclusive: 13.1 µM [inhibitor, single point]",
CC1CCC(CN2C(Nc3ccccc3)=NC[C@@H]2C)CC1 (stereo not given in full),,inactive: 54%
O=C(NCCCN1CCCCCC1)c1ccc(CS(=O)(=O)Cc2ccccc2F)o1,"inconclusive: 20.8 µM [inhibitor, partial curve, poor fit]",
CCCC(C)C(=O)Nc1cc(S(=O)(=O)N2CCCCC2)ccc1N1CCOCC1 (stereo not given),"inconclusive: 1.65 µM [inhibitor, partial curve, poor fit]",
O=C(NC1=NCCS1)c1cccs1,"inconclusive: 6.57 µM [inhibitor, partial curve, poor fit]",
O=C(Nc1ccccc1Cl)N(Cc1nc2ccccc2c(=O)[nH]1)Cc1cccs1,"inconclusive: 2.33 µM [inhibitor, full curve]",
Cc1sc2nc(SCC(=O)N(C)Cc3ccccc3)n(-c3ccccc3)c(=O)c2c1C,"inconclusive: 0.0329 µM [inhibitor, partial curve, poor fit]",
CCC(C)(C)n1nnnc1C(c1ccc(F)cc1)N1CCN(C(=O)c2ccco2)CC1 (stereo not given),,inactive: -29.3%
CCN1CCN(C(C)C(=O)Nc2c(C)n(C)n(-c3ccccc3)c2=O)CC1 (stereo not given),"inconclusive: 4.15 µM [inhibitor, partial curve, poor fit]",
Cc1nn(Cc2ccccc2)c(C)c1NC(=O)CSc1nc(-c2ccccc2)nc2c1cnn2-c1ccccc1,"inconclusive: 3.7 µM [inhibitor, full curve]",
CCn1c(C)nc2cc(C(=O)N/N=C(\C)c3ccc(OC)cc3O)ccc21,"inconclusive: 9.28 µM [inhibitor, single point]",
COc1cccc(-c2nc(COc3ccc(Cl)cc3Cl)no2)c1,,inactive: 26.5%
Cc1ccc(CNC(=O)Cn2cnc(S(=O)(=O)N3CCCCC3)c2)o1,"inconclusive: 0.928 µM [inhibitor, full curve]",
COc1ccc(OC)c(CN2CCN(C(=O)CN3C(=O)NC4(CCCC4)C3=O)CC2)c1,,inactive: 20.2%
CCN(CC)c1ccc(/C=N/NC(=O)C(O)(c2ccccc2)c2ccccc2)o1,"inconclusive: 2.33 µM [inhibitor, partial curve, poor fit]",

SMILES,Potency,"activity change, negative = inhibition"
CCc1c2c(nc3ccc(OC(=O)N4CCC(N5CCCCC5)CC4)cc13)-c1cc3c(c(=O)n1C2)COC(=O)[C@]3(O)CC,,inactive: -30.5%
Cc1ccc(S(=O)(=O)NCC2CCC(C(=O)N3CCN(C)CC3)CC2)cc1 (stereo not given),"inconclusive: 5.22 µM [inhibitor, partial curve]",
CCCCCCCNC(=O)C1(CC2CC(c3ccc(Cl)cc3)=NO2)CCN(C(=O)C2CCCC2)CC1 (stereo not given),active: 9.28 µM,
COc1ccc(OC)c(S(=O)(=O)N2CCCC(C(=O)NCc3ccccn3)C2)c1 (stereo not given),,inactive: -2.02%
Cc1cccc(-n2nnnc2SCC(=O)c2cc(C)n(CC3CCCO3)c2C)c1 (stereo not given),"inconclusive: 13.1 µM [inhibitor, single point]",
Cc1ccc(-c2noc(=O)n2CC(=O)Nc2ccc(S(=O)(=O)NC3CC3)cc2)cc1,"inconclusive: 18.5 µM [inhibitor, single point]",
O=C(COC(=O)C1(c2cccc(F)c2)CCCC1)NCc1cccs1,"inconclusive: 0.117 µM [inhibitor, partial curve, poor fit]",
O=C(c1cccc(-n2cccc2)c1)N1CCN(S(=O)(=O)c2ccc(F)cc2)CC1,,inactive: -1.15%
CC(OC(=O)c1c2c(nc3ccccc13)/C(=C\c1ccc3c(c1)OCO3)CCC2)C(=O)Nc1ccc(S(N)(=O)=O)cc1 (stereo not given),"inconclusive: 18.5 µM [inhibitor, single point]",
CCOC(=O)N1CCN(C(=O)c2cc3c(-c4ccc(Cl)cc4)nn(C)c3s2)CC1,"inconclusive: 18.5 µM [inhibitor, single point]",
CC1(C)CC(=O)c2c(O)cc(OCC(=O)N3CCN(c4ccc(F)cc4)CC3)cc2O1,"inconclusive: 9.28 µM [inhibitor, single point]",
COc1ccc(/C=N/N=C(\N)c2nonc2N)cc1,active: 1.31 µM,
COc1ccc(CCNC(=O)C2CCCN(S(=O)(=O)c3ccc(F)cc3)C2)cc1OC (stereo not given),"inconclusive: 13.1 µM [inhibitor, single point]",
COc1ccc(CCNC(=O)c2ccc3c(=O)n(Cc4ccco4)c(=S)[nH]c3c2)cc1OC,"inconclusive: 11.7 µM [inhibitor, single point]",
C=CCn1c(SCC(=O)c2ccc(O)c(O)c2)nnc1-c1ccccc1OC,"inconclusive: 10.4 µM [inhibitor, single point]",
Cc1ccc(NC(=O)c2ccccc2NS(=O)(=O)c2ccc(Cl)s2)cc1S(=O)(=O)N1CCOCC1,"inconclusive: 2.62 µM [inhibitor, single point]",
Fc1ccc(-n2c(Cc3ccccc3)nnc2SCc2nc(-c3ccc(Cl)cc3)no2)cc1,"inconclusive: 0.0329 µM [inhibitor, full curve, poor fit]",
COc1ccc(-c2cnn3c4c(c(C)nc23)CCN4C(C)C)cc1OC,,inactive: 53.8%
CCC1CCCCN1C(=O)CSc1nnc(-c2cccc(Cl)c2)o1 (stereo not given),,inactive: -20.3%
Cc1nn(-c2ccccc2)nc1CNC(=O)C1CCC1,,inactive: 59.8%
CCN1C(=O)[C@H]2[C@@H](c3ccc(-c4ccccc4)c(OC)c3)N[C@@](Cc3ccccc3)(C(=O)OC)[C@H]2C1=O,active: 0.657 µM,

# Structural class: the entries above with bromine
SMILES,Potency,"activity change, negative = inhibition"
CN1C(=O)CSC1=Nc1ccc(Br)cc1,"inconclusive: 7.38 µM [inhibitor, partial curve]",
Cc1nc([N+](=O)[O-])c(Br)n1Cc1ccc(Cl)c(Cl)c1,,inactive: -18.3%

# Single entries from the entries so far.
# Potency with `C=CCn1c(SCC(=O)c2ccc(O)c(O)c2)nnc1-c1ccccc1OC` reads inconclusive: 10.4 µM [inhibitor, single point]
# Potency with `CC1(C)CC(=O)c2c(O)cc(OCC(=O)N3CCN(c4ccc(F)cc4)CC3)cc2O1` reads inconclusive: 9.28 µM [inhibitor, single point]
